## Results from one PubChem assay

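Genome-wide siRNA knockdown in TC32 Ewing sarcoma cells, comparing luciferase light from an NR0B1-promoter reporter with a CMV-promoter reporter 48 hours after transfection. Each siRNA was applied at 20 nM. A z-score of the log NR0B1-over-CMV signal, less the median of siRNAs with the same seed; more negative means a stronger specific loss of the NR0B1 reporter.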

This is part of the screen; most of the strongest results are not listed here. Sequences are the guide (antisense) strand, without overhang.

| siRNA | gene | seed-corrected z-score |
|---|---|---|
| `UCUGAGAAUUCUGCUACCG` | GP6 | 0.6426 |
| `UACAGGGAUAUCAUGACGG` | PARP16 | 0.1743 |
| `UCUUUGGUCGGCAGGGUGU` | TMSB10 | 0.3591 |
| `UUCUAUCCAAUCUAGGUGC` | TRIP12 | -0.9593 |
| `UCUACGAACAAGCAAGUCC` | FAM172BP | 0.9164 |
| `UUCGGAAAUACUUCCAUAG` | DGAT2L6 | 0.07756 |
| `UGAAAAGCAGGUGUUAUCC` | DUSP12 | -0.6326 |
| `UUCACAAUCAGCUAUAGCU` | GRPEL2 | 1.007 |
| `UGCUGAUCCACGUUGUAGG` | ODF3B | 0.5515 |
| `UUCAGCACAGCUAUAGGGC` | ZNF473 | 1.333 |
| `UCCAGUAUAAAUAAAAGGU` | RGPD4-AS1 | 1.361 |
| `UGUUGUUCCACACCAUCUC` | CFAP45 | -1.348 |
| `AGACCAAAUGUCAAGGGCG` | LOC392529 | 0.006805 |
| `UGCCUAUCAAGGUAAAGAG` | OR5T3 | -0.4843 |
| `UUGUUUAGAUUGUCAAUGG` | QPCT | -1.177 |
| `AAUGUAUCCAUGUCCUGAC` | NPIPB7 | -0.5312 |
| `UCCGUUUAAGUACUUUCCG` | PIAS4 | 0.2823 |
| `AAGCCCAUAAAGUUCUUUC` | LOC645877 | -0.05657 |
| `UUGUUGAACAUAACUCAUU` | PATE4 | 1.077 |
| `UUCAUCUCGCCUAUCAUCC` | KRT126P | -1.848 |
| `UCCACAGCCUCCGUGUUUC` | MRPL27 | -1.906 |
| `AAUCGAAUUAUUUUGAGGG` | TNFRSF1A | 0.116 |
| `UGUCCAUUAAUAGAGGCUC` | RASSF6 | -0.3482 |
| `UGAACGAUAAAGGAAGUUC` | C4orf33 | 0.2333 |
| `UUCCAAGCAAUGGUGAUGC` | STAT5B | -1.504 |
| `UUCUCUCUAUGAUAAAUGC` | ZNF254 | 0.7387 |
| `AAAUGAAUGUCUCCUAGAC` | ACSM2B | 0.33 |
| `UCACAUUCCAAGAUAUACU` | CRYBA1 | 0.08173 |
| `AAAUCAACCACAGUUGAGC` | YRDC | 0.712 |
| `GUAGUAGGCGGAGCAGUUC` | COMTD1 | 0.4254 |
| `UUAGCAUCAGCUUUGCAGG` | PVRL1 | -0.2932 |
| `UCUAUGGUUUCAAUCUUGC` | HNRNPA3 | 0.3815 |
| `UAAAGAACCAUUCCGGCAG` | GPR151 | -0.3736 |
| `UCUGAAGACAGGAAGAGGC` | SMIM3 | 0.01432 |
| `ACUGUGAUACGGAAGUUUG` | GPD1 | 0.8294 |
| `AUUCUUCUGACUACUGACU` | ICA1L | -0.03346 |
| `UCAGCUUCUAGAAUCCUCU` | RXRG | -0.4044 |
| `UGCAAUAUGAACUAUACCG` | MMGT1 | 0.779 |
| `UUCUACUUCAGUGCGCACG` | FAM129A | -0.3129 |
| `UUCCUCCACAUCACGACUG` | TMSB10 | -0.7887 |
| `ACGGCUAGGAAGUAGAUGC` | NPBWR2 | 0.3 |
| `UCCUUGUACGCGUCCCUCU` | MAF | 1.166 |
| `UGACCUUGAAGAGUAUGCC` | C16orf96 | 0.01932 |
| `AAACUGAUGCUUCGAUUCC` | RIC1 | -0.4571 |
| `UUCUGACUCACUAUUUGCC` | HBP1 | -0.04463 |
| `UUCAUUAUCGGUGAGCAGC` | CLMP | -1.067 |
| `AACUCUGUCACAUUUCCCA` | CYP27B1 | -0.2823 |
| `UAUAUCUCGAGACAAGUGC` | MRPS6 | 0.1613 |
| `UCUGUGGUGACAUCAAUAC` | MFN2 | -0.2486 |
| `AUCCGUCAUAGGUAAUUGC` | FREM1 | 0.6401 |
| `UUCAGGAUCGUAGAAAUGC` | GPT2 | 0.1569 |
| `UUGUCGAUAACGCAGACUC` | TPR | -0.6642 |
| `UUCACUUCCCUUGACAGCG` | NDUFAF2 | -1.075 |
| `UACCGUUCAUUUCACAGAC` | NLRP9 | -0.1539 |
| `UGUCUAUCUAGAGUCUGGG` | SULT1C3 | 0.5942 |
| `UUUGAGCUCCAGAUAUUCC` | ERLIN1 | 0.07526 |
| `UUGACUCCAAUAUUGCUCG` | GK5 | -0.01155 |
| `AAUCGUUCAAUUCCAAUGG` | KIAA0922 | 0.3859 |
| `AGCAUUACAAGUAAGUGCC` | LGR5 | -0.7895 |
| `UCUUGCAUCUUGUCGAUCU` | FOXN1 | 0.004565 |
| `UCUAUUAAGACUUUCCCGG` | CTSO | -0.04537 |
| `AACAGAUCUGAAUCCUUUC` | CELF2-AS2 | 1.064 |
| `UUUCGAGUUAACUUCAGGG` | PRPF38B | -0.9668 |
| `AUCAUGAUCACGGACAUUG` | SARDH | 1.021 |
| `UAAUCCGUCAUUCCUAGAG` | PDGFRA | -0.1665 |
| `UCCUCAAUCCUCCCGAUCU` | RPS14P3 | -0.7372 |
| `UUUGUAUCACUGUUGCACG` | SERPINE3 | -0.8106 |
| `UAUCUUGUACUCUGUCACU` | EIF3G | 0.3977 |
| `UUUCGGAAGGGUUAGAAGG` | ATF7IP2 | 0.6991 |
| `UAUGGUAUUAGUCCUUUUG` | HIBCH | 0.6399 |
| `UUCUCGUCAUUCUUUCUCC` | TGFBR2 | -0.002262 |
| `UUACGGUCUUCCUCAAUCU` | CCDC9 | 1.32 |
| `UUACCAUAAACCUUUCUAG` | CNTD1 | -0.08739 |
| `UGGUUCUCCAGAUACUUUG` | KIF2C | -0.2527 |
| `UGAGAGCUUGGGAUCCUCC` | CDC42EP3 | -0.02243 |
| `AAAGAGAUAGGAUGGUCUG` | CEMP1 | 0.4191 |
| `AAAGUAUUAAGGUCGAUGG` | GALNT6 | -0.2981 |
| `UAAUGAAAUAAGAACCUUU` | NMU | 0.4991 |
| `UUCUCUUCUAUCGGGCUCU` | FLJ37453 | -1.015 |
| `UGGUAUAUAUCGAUAAAGC` | SLC25A14 | 0.2366 |
| `UGUUUAAUUAGUUAUUUCC` | PRDM7 | 0.05946 |

9 of the entries, repeated:

Result for UCUAUUAAGACUUUCCCGG against CTSO was seed-corrected z-score -0.04537.
Result for UUCUAUCCAAUCUAGGUGC against TRIP12 was seed-corrected z-score -0.9593.
Result for AAUGUAUCCAUGUCCUGAC against NPIPB7 was seed-corrected z-score -0.5312.
Result for UCUGUGGUGACAUCAAUAC against MFN2 was seed-corrected z-score -0.2486.
Result for UCCACAGCCUCCGUGUUUC against MRPL27 was seed-corrected z-score -1.906.
Result for UACAGGGAUAUCAUGACGG against PARP16 was seed-corrected z-score 0.1743.
Result for UCCAGUAUAAAUAAAAGGU against RGPD4-AS1 was seed-corrected z-score 1.361.
Result for UCUACGAACAAGCAAGUCC against FAM172BP was seed-corrected z-score 0.9164.
Result for UGAACGAUAAAGGAAGUUC against C4orf33 was seed-corrected z-score 0.2333.

From PubChem BioAssay record AID1159506 (NCATS, 2015).